This is an account of results in the DeepSol protein solubility set.

The data set can be described thus: soluble on expression in E. coli; label from the status in PepcDB or PDB records.

With “AAGEIDESLYSRQLYVLGKEAMLKMQTSNVLILGLKGLGVEIAKNVVLAGVKSMTVFDPEPVQLADLSTQFFLTEKDIGQKRGDVTRAKLAELNAYVPVNVLDSLDDVTQLSQFQVVVATDTVSLEDKVKINEFCHSSGIRFISSETRGLFGNTFVDLGDEFTVLDPTGEEPRTGMVSDIEPDGTVTMLDDNRHGLEDGNFVRFSEVEGLDKLNDGTLFKVEVLGPFAFRIGSVKEYGEYKKGGIFTEVKVPRKISFKSLKQQLSNPEFVFSDFAKFDRAAQLHLGFQALHQFAVRHNGELPRTMNDEDANELIKLVTDLSVQQPEVLGEGVDVNEDLIKELSYQARGDIPGVVAFFGGLVAQEVLKACSGKFTPLKQFMYFDSLESLPDPKNFPRNEKTTQPVNSRYDNQIAVFGLDFQKKIANSKVFLVGSGAIGCEMLKNWALLGLGSGSDGYIVVTDNDSIEKSNLNRQFLFRPKDVGKNKSEVAAEAVCAMNPDLKGKINAKIDKVGPETEEIFNDSFWESLDFVTNALDNVDARTYVDRRCVFYRKPLLESGTLGTKGNTQVIIPRLTESYSSSRDPPEKSIPLCTLRSFPNKIDHTIAWAKSLFQGYFTDSAENVNMYLTQPNFVEQTLKQSGDVKGVLESISDSLSSKPHNFEDCIKWARLEFEKKFNHDIKQLLFNFPKDAKTSNGEPFWSGAKRAPTPLEFDIYNNDHFHFVVAGASLRAYNYGIKSDDSNSKPNVDEYKSVIDHMIIPEFTPNANLKIQVNDDDPDPNANAANGSDEIDQLVSSLPDPSTLAGFKLEPVDFEKDDDTNHHIEFITACSNCRAQNYFIETADRQKTKFIAGRIIPAIATTTSLVTGLVNLELYKLIDNKTDIEQYKNGFVNLALPFFGFSEPIASPKGEYNNKKYDKIWDRFDIKGDIKLSDLIEHFEKDEGLEITMLSYGVSLLYASFFPPKKLKERLNLPITQLVKLVTKKDIPAHVSTMILEICADDKEGEDVEVPFITIHL”, the “soluble on expression in E. coli” value is “soluble”.

Regarding “MGSDKIHHHHHHMPGPPRSLEMGLLTFRDVAIEFSLEEWQHLDIAQQNLYRNVMLENYRNLAFLGIAVSKPDLITCLEQGKEPWNMKRHEMVDEPPGMCPHFAQGLWPEQGMEDSFQKAILRRYGKYGHENLQLRKGCKSVDEYKVNKEGYNGLNQCFTTAQSKVFQCDKYLKVFYKFLNSNRPKIRHTEKKSFKCKKRVKLFCMLSHKTQHKSIYHREKSYKCKECGKTFNWSSTLTNHRKIYTEEKPYKCEEYNKSPKQLSTLTTHEIIHAGEKLYKCEECGEAFNRSSNLTTHKIIHTGEKPYKCEECGKAFIWSSTLTEHKKIHTRKKPYKCEECGKAFIWSSTLTRHKRMHTGEKPYKCEECGKAFSQSSTLTTHKIIHTGEKRYKCLECGKAFKQLSTLTTHKIIHVGEKLYKCEECGKGFNRSSNLTTHKIIHTGEKPYKCEECGKAFIWSSTLTKHKRIHTREKPYKCEECGKAFIWSSTLTRHKRMHTGEKPYKCEECGKSFSQSSTLTTHKIIHTGEKPYKCEECGKAFNWSSTLTKHNIIHTEEKPYKCEKCGKAFKQSSILTNHKRIHTGEKPYKCEECGKSFNRSSTFTKHKVIHTGVKPYKCEECGKAFFWSSTLTKHKRIHTGEQPYKWEKFGKAFNRSSHLTTDKITHWREILQV”, the “soluble on expression in E. coli” value is recorded as “not soluble”. Turning to “MDINKFTIKLQEALAEAQSYAFQQKATEFTSAHILKALLEQNDSVAISILSVCGVNIQNFIKAVNDMVDSVAVLSGEGNPQVTPSRDLIATLHKMQGLANKNGDEFISSEVFLLASLEDKSLTGLYNKFGITKEKLTKAVNDYRGGEKVSSQNQEDMKGALDKYTVDLTDLARKGKIDPIIGRDSEIRRTIQVLQRRTKNNPVLIGEPGVGKTAIVEGLAQRIVNDEVPEGVKGKKVLSLDMGALLAGAKFRGDFEERLKSVLKELSKQEGNVILFIDELHTMVGAGKAEGSMDAGNMLKPALARGELKCVGATTLDEYREYVEKDPALERRFQKVLVDEPTVEDTIAILRGLKERYELHHGVNITDSAIVSAATLSHRYITDRQLPDKAIDLVDEAASQIRMEIDSKPEKMESLYRRIIQLKMQREQLKKEKDDATKKRLEILEQEIKGLDSEYKGLEELWKAEKLKMQGTSKLKEELEKAKFELEKYQRVGDLSKMAELQYGKIPELEAQIKQIEETEAEPSENKLVRTSVTENEIADVVSKATGIPVSKMMEGEKDKLLNMESFLHKRVIGQDQAIKAVSNAVRRSRSGLSDPNRPIGSFMFLGPTGVGKTELTKALAEFLFDDEDAMLRVDMSEFMEKHSVARLIGAPPGYVGYEQGGYLTEHVRRKPYSVILLDEVEKAHADIFNILLQVLDDGRLTDGQGRTVDFKNTVIVMTSNLGSHRIQEMQGQDYETVKSAVMEMVLSHFRPEFVNRVDDAIVFEPLNKEMITEIAKIQIKRLEKRLADLSIGLEVTTGAMDKLADAGFDPVFGARPLKRAIQNNLENPLALKLLDGEFKAEDKIVVDIDANNNIIFSK”, the “soluble on expression in E. coli” value is given as “soluble”.

“EQLLPDLLISPHMLPLTDLEIKFQYRGRPPRALTISNPHGCRLFYSQLEATQEQVELFGPISLEQVRFPSPEDIPSDKQRFYTNQLLDVLDRGLILQLQGQDLYAIRLCQCKVFWSGPCASAHDSCPNPIQREVKTKLFSLEHFLNELILFQKGQTNTPPPFEIFFCFGEEWPDRKPREKKLITVQVVPVAARLLLEMFSGELSWSADDIRLQISNPDLKDRMVEQFKELHHIWQSQQRLQPVAQA”: the “soluble on expression in E. coli” value is listed as “soluble”. The result for “MSKATSACSQKKTSLLDPSPKKSSVIETTTKKTSGIESKLLPNELPSTGTTGTSGVKNGASSPKTSPAKTTTTTTTVVTQKVSNQPTAPISTLPPRKPTAQKSRELSPPKAKKSPSPSRTGSGDSGSRKESSASRKDSSKTEKLVKDLENVKLEKGDSRESATLPTPKQYPASDDEEDTKERKSLRFGTTTEWQSDNLEEFYREHEKFPNAEAVKKFGQMYSMTELIAETWLETRRQQTYQKYVEKGLQTDPSVIQFYCESLKIAEGLRLENPSIQTKSFFSLNGVNALEQKKEEEEKMQPVISVSSNKVFISPKKEQKCQLTIKNDGEVNVVYQISIMNAANYVMSPICAILLPKEELTLNITRKPGKLLEEEFFRIDYGVAPEGIIDARDSSDRAEFTNREIIEVVEIDEKEMKIVR” reads “not soluble”; that for “MTSLIDSRVLYESDFSIFNGRLCSLRISAVTNNEEGIEKIRITSPSDATILLDTSISSDECSSFIEILKEISTARKSDPSILGPRIETIHSENEYPFQMVIEPINREKHSGKTLPLSHPPPQERCDYVLQLYAKEKVQHQSQKTKVEELTKQLQQARVDYNTLKQRCDFQEKEIALLRQITSSTGSGNRKRSRDDSETTHIKKRRCGCGDDGESCGSDCDGMDDDEEDETDTDVQMFRAATAQLQMAAAGRNTQNGTSSHQKLKRKIPKSQSVSIGNARGMVTLPNLLQPKLEESDDGYNYSGRSSTQSNIDKLELAVRRESIVDIGRAVIDGIKNKTLTENQLEEFCKTTHRPNISIFRFYKDSEECTKEENEAIMMGQTVMMKMLDPQEKAIAGVQASISSLSASFANQTKLGLIKHQRLTRSYVTLPVDYFPSIDLTEAYNSSNLFGADATMQLTNFYQTVLKNVLNPVYMIWIYTYRPSTVRTCDKHFVEFPQNVITTLFDMTTDIVGLYLPEYLLDGEIDPMDPFLLTIDAVDPFEEIMRRRTERKLANTTFNHALGRAMKNLRSYHYDPTRGILLNCSEKKNCGMHLQWEQMRKFREYCRKENVACDDATPEEMIAFNLRASKVHYEDYSPGNVSSEEGNKNEMPNFMEQLEKFSSVIVKGPNLPSTSTMSTMHIKMENGKEQSGPLLLRNSPNDQNQKVVGVVQYVICQLCPEEEQKSMDLSNQKQMEEHFLNKHVDKEKKKCEACPSDQFQPHNIGQHYRLHTNSVFACEHCGKRGRRNFLKTHIRTHTGERPYRCDTCSKSFTDASTLRRHGLVHTGEKKYQCPVCGRAIARKDNVKAHIRSHGIQI”, “not soluble”; that for “MQTEISWHSINWAKANREVKRLQVRIAKAVKEGRWGKVKALQWLLTHSFYGKALAVKRVTDNSGSKTPGVDGITWSTQEQKTQAIKSLRRRGYKPQPLRRVYIPKANGKQRPLGIPTMRDRAMQALYALALEPVAETTADRNSYGFRRGRSTADAAGQCFITLARADSATYVPDADISGCFDNISHEWLLANIPLDKEILRKWLKSGFVWKQQLFPTHAGTPQGGVISPILANMALDGMEELLNEALQKSQSPSHLEHHHHHH”, “soluble”.
